Positions count from the first letter of the chain named. These are yes or no findings as the source states them, for the method shown. Some results given as binding are weak or reduced against the parent protein; the word gives no strength.
B1: 1CP-117 (antibody, human IgG1, kappa, V domains shown)
VH: QVQLVQSGSELKKPGASVKVSCKASGYTLTDFSMHWVRQAPGQGLEWMGWINTETGAPTYADDFKGRFVLSLDTSVSTAYLQISSLKAEDTAVYYCSRGRDYDPHFDYWGQGTLVTVSS
VL: EIVLTQSPATLSLSPGERATLSCRASQSISDFLHWYQQKPGQSPRLLIKYASQSISGIPARFSGSGSGSDFTLTISSVEPEDFAVYYCQSAHSFPYTFGQGTKLEIKR
B2: 1CP-121 (antibody, human IgG1, kappa, V domains shown)
VH: B1 VH
VL: B1 VL with P40S
B3: 1CP-124 (antibody, human IgG1, kappa, V domains shown)
VH: QVQLVQSGAEVKKPGASVKVSCKASGYNFISYWLHWVRQAPGQGLEWMGGIYPGNTDTTYNQKFKGRVTMTRDTSTSTVYMELSSLRSEDTAVYYCIRYDYDRGMDYWGQGTLVTVSS
VL: DIQMTQSPSSLSASVGDRVTITCRASEDIYYRLAWYQQKPGKAPKLLISGATALETGVPSRFSGSGSGKDYTFTISSLQPEDIATYYCQHYWNIPWTFGQGTKVEIKR
B4: 1CP-125 (antibody, human IgG1, kappa, V domains shown)
VH: B3 VH with R72A
VL: B3 VL
B5: 1CP-152 (antibody, human IgG1, kappa, V domains shown)
VH: EVQLVESGGGLVQPGRSLRLSCTTSGLTFTHYHMSWVRQAPGKGLEWVAIIRNKAYGYTTDYSASVRGRFTISRDDSKSILYLQMNSLKTEDTAVYYCVREGGYGYDGTFAYWGQGTLVTVSS
VL: DIQMTQSPSSLSASVGDRVTITCRASESVDNYGISFMNWFQQKPGQAPKLLIYAASNQGSGVPSRFSGSGSGTDFTLTISSMQPEDFATYYCQQSKEVPRTFGGGTKVEIKR
B6: 1CP-157 (antibody, human IgG1, kappa, V domains shown)
VH: B5 VH with L45P
VL: B5 VL with A47P

Target: CynoCDCP1 (Macaca fascicularis)
Experiment: Caterra SPR, antigen immobilized

Row | Binder | binding
1 | B1 | binds
2 | B2 | binds
3 | B3 | binds
4 | B4 | binds
5 | B5 | binds
6 | B6 | binds
